Source: article PMC7718874, “Coupling of H3K27me3 recognition with transcriptional repression through the BAH-PHD-CPL2 complex in Arabidopsis” (Nature Communications, 2020)

Target: T1, CPL2, full-length, yeast two-hybrid fusion (Arabidopsis) (UniProt Q5YDB5)
T1 sequence: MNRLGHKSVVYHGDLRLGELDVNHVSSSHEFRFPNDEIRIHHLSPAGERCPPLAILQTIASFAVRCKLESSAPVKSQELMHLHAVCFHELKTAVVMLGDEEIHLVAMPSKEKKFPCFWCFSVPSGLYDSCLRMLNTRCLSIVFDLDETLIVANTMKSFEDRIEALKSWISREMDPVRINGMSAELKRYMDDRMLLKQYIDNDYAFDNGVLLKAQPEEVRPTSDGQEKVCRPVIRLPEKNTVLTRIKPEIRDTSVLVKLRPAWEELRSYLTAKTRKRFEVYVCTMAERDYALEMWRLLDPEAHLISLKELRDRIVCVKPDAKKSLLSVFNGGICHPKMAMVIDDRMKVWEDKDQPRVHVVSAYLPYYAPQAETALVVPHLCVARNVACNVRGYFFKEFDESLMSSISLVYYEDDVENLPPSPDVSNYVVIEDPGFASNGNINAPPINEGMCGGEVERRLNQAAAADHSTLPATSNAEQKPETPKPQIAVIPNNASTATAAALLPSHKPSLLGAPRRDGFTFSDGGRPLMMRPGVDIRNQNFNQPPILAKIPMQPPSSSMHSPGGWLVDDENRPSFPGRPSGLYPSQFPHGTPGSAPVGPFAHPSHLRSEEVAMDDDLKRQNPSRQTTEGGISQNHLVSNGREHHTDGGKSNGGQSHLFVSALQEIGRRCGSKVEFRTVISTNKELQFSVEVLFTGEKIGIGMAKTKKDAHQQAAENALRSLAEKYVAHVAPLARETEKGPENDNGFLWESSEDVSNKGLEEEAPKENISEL
Assay: two-hybrid; yeast two-hybrid, AD (pGADT7) and BD (pGBKT7) constructs, growth on SD -LW or -LWH plates, 30 °C, 3 d

Row | binding | Substance
1 | binds | AIPP2 C-terminus part, yeast two-hybrid fusion (Arabidopsis) (domain or fragment)
2 | binds | PAIPP2 C-terminus part, yeast two-hybrid fusion (Arabidopsis) (domain or fragment)

Results are given in words; binding and its absence hold for the method and conditions named. A result given as binding can be weak or reduced; the word gives no strength. Sequences can lack the tags named with a protein.
